Drawing on publication PMC9163188, this text covers binding for one molecule.

Chains of the proteins cited; added tags and fusions are not shown.
UniProt P99999: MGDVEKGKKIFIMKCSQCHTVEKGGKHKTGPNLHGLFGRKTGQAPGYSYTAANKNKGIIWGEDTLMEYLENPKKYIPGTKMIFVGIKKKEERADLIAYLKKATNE

For the experiment, the target named is cytochrome c (CYCS), endogenous (human (endogenous in HEK-293T; the cell line of the proximity ligation assay is not stated, all lines of the paper are human)) (UniProt P99999). Kind of experiment: proximity ligation; Duolink kit; anti-USP53 rabbit polyclonal Ab with PLUS probe, anti-CYCS mouse monoclonal Ab with MINUS probe; endogenous proteins in fixed cells, MitoTracker and DAPI, confocal microscopy.

No constants are given. Whether binding was seen depends on the method and setting. Binding seen in cells or lysates may run through a third protein. Some entries that bind do so weakly or less than the wild type.

B1: USP53, endogenous (enzyme, UniProt Q70EK8 1-1073)
chain: MAWVKFLRKPGGNLGKVYQPGSMLSLAPTKGLLNEPGQNSCFLNSAVQVLWQLDIFRRSLRVLTGHVCQGDACIFCALKTIFAQFQHSREKALPSDNIRHALAESFKDEQRFQLGLMDDAAECFENMLERIHFHIVPSRDADMCTSKSCITHQKFAMTLYEQCVCRSCGASSDPLPFTEFVRYISTTALCNEVERMLERHERFKPEMFAELLQAANTTDDYRKCPSNCGQKIKIRRVLMNCPEIVTIGLVWDSEHSDLTEAVVRNLATHLYLPGLFYRVTDENAKNSELNLVGMICYTSQHYCAFAFHTKSSKWVFFDDANVKEIGTRWKDVVSKCIRCHFQPLLLFYANPDGTAVSTEDALRQVISWSHYKSVAENMGCEKPVIHKSDNLKENGFGDQAKQRENQKFPTDNISSSNRSHSHTGVGKGPAKLSHIDQREKIKDISRECALKAIEQKNLLSSQRKDLEKGQRKDLGRHRDLVDEDLSHFQSGSPPAPNGFKQHGNPHLYHSQGKGSYKHDRVVPQSRASAQIISSSKSQILAPGEKITGKVKSDNGTGYDTDSSQDSRDRGNSCDSSSKSRNRGWKPMRETLNVDSIFSESEKRQHSPRHKPNISNKPKSSKDPSFSNWPKENPKQKGLMTIYEDEMKQEIGSRSSLESNGKGAEKNKGLVEGKVHGDNWQMQRTESGYESSDHISNGSTNLDSPVIDGNGTVMDISGVKETVCFSDQITTSNLNKERGDCTSLQSQHHLEGFRKELRNLEAGYKSHEFHPESHLQIKNHLIKRSHVHEDNGKLFPSSSLQIPKDHNAREHIHQSDEQKLEKPNECKFSEWLNIENSERTGLPFHVDNSASGKRVNSNEPSSLWSSHLRTVGLKPETAPLIQQQNIMDQCYFENSLSTECIIRSASRSDGCQMPKLFCQNLPPPLPPKKYAITSVPQSEKSESTPDVKLTEVFKATSHLPKHSLSTASEPSLEVSTHMNDERHKETFQVRECFGNTPNCPSSSSTNDFQANSGAIDAFCQPELDSISTCPNETVSLTTYFSVDSCMTDTYRLKYHQRPKLSFPESSGFCNNSLS
With B1, the binding result is “binds”.
